These are yes or no findings as the source states them, for the method shown. Some entries that bind do so weakly or less than the wild type.
B1: anti-NKG2D antibody clone 013 (antibody, V domains shown)
VH: EQSGGGAGGGLVKPGGSLELCCKASGFDFSIYWMSWVRQSPGKGLEWIGRIYGGSSDYTAYASWVNGRFTLSRDIDQSTGCLQLNSLTAADTAMYYCVRLNPSFSRSFDYWGQGTLVTVSS
VL: DIQMTQSPSSVSASVGDRVTITCRASQGIFSWLVWYQQKPGKAPELLMYGASTLQSGVPSRFSGSGSGTDFTLTISSLQPEDFATYYCQQGYSTPYTFGQGTKVEIK
B2: anti-NKG2D antibody clone 320 (antibody, V domains shown)
VH: EVQLLESGGGLVQPGGSLRLSCATSGFTFSDYAMSWVRQAPGKGLEWVSYNSFSVGSTDYADSVKGRFTISRDNSKNTLYLQMNSLRAEDTAVYYCSKHSGNYYTGPFHYWGQGTLVTVSS
VL: DIQLTQSPSFLSASVGDRVTITCRASQGISSYLAWYQQKPGKAPKLLIYAASSLESGVPSRFSGSGSGTDFTLTISSLQPEDFATYYCQQSYSTPITFGQGTRLEIK
B3: anti-NKG2D antibody clone 018 (antibody, V domains shown)
VH: QQLEQSGGGLVTPGGSLKVCCKASGFDFTTYWMTWVRQAPEKGLEWIGCIHGGDSGATYYANWVNGRFTLSRDIDQSTGCLQLNSLTAADTAMYYCARPGYPSWSKTFDLWGQGTMVTVSS
VL: DIQMTQSPSSLSASVGDRVTITCQASQDISNALNWYQQKPGKAPKLLIYAASTLQSGVPSRFSGSGSGTDFTLTISSLQPEDFATYYCQHSNSFPLTFGGGTKVEIK
B4: anti-NKG2D antibody clone 230 (antibody, V domains shown)
VH: QQLEQSGGGLVKPGGSLELCCIASGFDFSTYWMTWVRQAPGKGLEWIGCIHGGGSGTTSYASWVNGRFTLSRDIDQSTGCLQLTSLTAADTAMYYCARPGYRSWSKTFDLWGQGTMVTVSS
VL: DIQMTQSPSSLSASVGDRVTITCQANQDISNALNWYQQKPGKAPKLLIYAASSLQSGVPSRFSGSGSGTDFTLTISSLQPEDFAAYYCQQAASFPLTFGGGTKVEIK
B5: anti-NKG2D antibody clone 395 (antibody, V domains shown)
VH: QEQLEQSGGGLVTPGGSLKLCCTASGFDFNTFWMTWVRQAPGKGLEWIGCIHGGSGSRDYASWVNGRFTLSRDIDQSTACLQVNSLTAADTAMYYCARPGYRSWSKTFDLWGQGTMVTVSS
VL: DIQMTQSPSSLSASVGDRVTITCRASQDISGALNWYQQKPGKAPNLLIYAASSLQSGVPSRFSGSGSGTDYTLTISSLQPEDFATYYCQQANSFPLTFGGGTKVEIK
B6: anti-NKG2D antibody clone 001 (antibody, V domains shown)
VH: QQLEQSGGGLVTPGGSLKLCCIGSGFDFNTYWMTWVRQAPGKGLEWIGCIHGGSSGSTYYASWVNGRFTLSRDIDQSTGCLQVNSLTAADTAMYYCARPGYRSWSKTFDLWGQGTMVTVSS
VL: DIQMTQSPSSLSASVGDRVTITCRASQDISESLNWYQQKPGKAPKLLIYAASSLQSGVPSRFSGSGSGTDYTLTISSLQPEDFATYYCQQANSFPLTFGGGTKVEIK
B7: anti-NKG2D antibody clone 296 (antibody, V domains shown)
VH: EVQLLESGGGLVQPGGSLRLSCAASGFTFSSYAMSWVRQAPGKGLEWVSAIGIGGGGTYYADSVKGRFTISRDNSKNTLYLQMNSLRAEDTAVYHCAKGASFDFINFFPYWGQGTLVTVSS
VL: DIQMTQSPSSLSASVGDRVTITCRASQGISNDLAWYQQKPGKAPKLLIYAASSLQSGVPSRFSGSGSGTDFTLTISSLQPEDFATYYCQQTYSTPLTFGGGTKVEIK

Sequences of proteins named here, by UniProt entry; tags and fusion partners are left off. A change or cut given only in a name is not applied to a line headed by its entry.
UniProt P26718: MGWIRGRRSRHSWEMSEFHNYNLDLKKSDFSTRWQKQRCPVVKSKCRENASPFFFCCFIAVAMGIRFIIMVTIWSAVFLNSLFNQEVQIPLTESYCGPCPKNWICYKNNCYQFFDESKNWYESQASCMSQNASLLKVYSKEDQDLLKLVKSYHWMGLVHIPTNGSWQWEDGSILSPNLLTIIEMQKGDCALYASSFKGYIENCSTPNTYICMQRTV

Target: recombinant biotinylated human NKG2D (Example 5) (human) (UniProt P26718)
Test: competition ELISA: biotinylated human NKG2D pre-incubated with the antibody, then added to plate-coated MIC-B (ECD FL MIC-B Fc avi), bound NKG2D detected with streptavidin-HRP; ligand MIC-B is not blocked

binding, binds:
B1

Target: recombinant biotinylated human NKG2D (Example 5) (human) (UniProt P26718)
Test: competition ELISA: biotinylated human NKG2D pre-incubated with the antibody, then added to plate-coated MIC-B (ECD FL MIC-B Fc avi), bound NKG2D detected with streptavidin-HRP; blocked ligand: MIC-B

binding, binds:
B2, B3, B4, B5, B6, B7
